According to paper PMC13086964, “USP7 deubiquitinase stabilizes FAN1 to support DNA crosslink repair and suppress CAG repeat expansion” (Nature Communications, 2026):
These are yes or no findings as the source states them, for the method shown. Binding seen in cells or lysates may run through a third protein. These calls come from enrichment with a bait or labelling near it, and not all partners need be listed.

Protein sequences, listed by entry. Tags and fused reporters are not part of them.
UniProt Q9Y2M0: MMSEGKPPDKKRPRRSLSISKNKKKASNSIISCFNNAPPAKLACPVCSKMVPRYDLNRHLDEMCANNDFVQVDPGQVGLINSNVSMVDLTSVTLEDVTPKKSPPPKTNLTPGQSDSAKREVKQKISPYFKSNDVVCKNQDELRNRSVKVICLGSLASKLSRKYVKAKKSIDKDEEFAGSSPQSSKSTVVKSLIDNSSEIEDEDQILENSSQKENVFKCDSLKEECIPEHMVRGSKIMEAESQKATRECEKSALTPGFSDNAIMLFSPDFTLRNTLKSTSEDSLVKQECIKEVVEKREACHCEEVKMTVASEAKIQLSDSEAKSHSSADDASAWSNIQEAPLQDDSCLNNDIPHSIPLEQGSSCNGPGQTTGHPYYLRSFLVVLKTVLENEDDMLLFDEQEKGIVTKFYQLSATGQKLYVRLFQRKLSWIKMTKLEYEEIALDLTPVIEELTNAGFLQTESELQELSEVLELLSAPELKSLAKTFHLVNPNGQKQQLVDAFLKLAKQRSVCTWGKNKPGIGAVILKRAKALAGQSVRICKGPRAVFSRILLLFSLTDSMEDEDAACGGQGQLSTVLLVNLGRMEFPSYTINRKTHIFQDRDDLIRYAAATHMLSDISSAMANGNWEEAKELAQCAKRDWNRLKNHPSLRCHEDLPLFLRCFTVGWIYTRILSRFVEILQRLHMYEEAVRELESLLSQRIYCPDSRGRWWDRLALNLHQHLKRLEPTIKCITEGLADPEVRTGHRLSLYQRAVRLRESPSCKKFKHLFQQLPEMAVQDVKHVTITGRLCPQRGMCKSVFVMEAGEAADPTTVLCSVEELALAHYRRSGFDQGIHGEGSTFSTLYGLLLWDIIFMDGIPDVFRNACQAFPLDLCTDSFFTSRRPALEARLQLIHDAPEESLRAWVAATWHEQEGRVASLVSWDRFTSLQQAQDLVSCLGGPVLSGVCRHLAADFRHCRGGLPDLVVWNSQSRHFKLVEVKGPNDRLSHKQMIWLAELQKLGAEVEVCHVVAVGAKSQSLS
UniProt Q93008: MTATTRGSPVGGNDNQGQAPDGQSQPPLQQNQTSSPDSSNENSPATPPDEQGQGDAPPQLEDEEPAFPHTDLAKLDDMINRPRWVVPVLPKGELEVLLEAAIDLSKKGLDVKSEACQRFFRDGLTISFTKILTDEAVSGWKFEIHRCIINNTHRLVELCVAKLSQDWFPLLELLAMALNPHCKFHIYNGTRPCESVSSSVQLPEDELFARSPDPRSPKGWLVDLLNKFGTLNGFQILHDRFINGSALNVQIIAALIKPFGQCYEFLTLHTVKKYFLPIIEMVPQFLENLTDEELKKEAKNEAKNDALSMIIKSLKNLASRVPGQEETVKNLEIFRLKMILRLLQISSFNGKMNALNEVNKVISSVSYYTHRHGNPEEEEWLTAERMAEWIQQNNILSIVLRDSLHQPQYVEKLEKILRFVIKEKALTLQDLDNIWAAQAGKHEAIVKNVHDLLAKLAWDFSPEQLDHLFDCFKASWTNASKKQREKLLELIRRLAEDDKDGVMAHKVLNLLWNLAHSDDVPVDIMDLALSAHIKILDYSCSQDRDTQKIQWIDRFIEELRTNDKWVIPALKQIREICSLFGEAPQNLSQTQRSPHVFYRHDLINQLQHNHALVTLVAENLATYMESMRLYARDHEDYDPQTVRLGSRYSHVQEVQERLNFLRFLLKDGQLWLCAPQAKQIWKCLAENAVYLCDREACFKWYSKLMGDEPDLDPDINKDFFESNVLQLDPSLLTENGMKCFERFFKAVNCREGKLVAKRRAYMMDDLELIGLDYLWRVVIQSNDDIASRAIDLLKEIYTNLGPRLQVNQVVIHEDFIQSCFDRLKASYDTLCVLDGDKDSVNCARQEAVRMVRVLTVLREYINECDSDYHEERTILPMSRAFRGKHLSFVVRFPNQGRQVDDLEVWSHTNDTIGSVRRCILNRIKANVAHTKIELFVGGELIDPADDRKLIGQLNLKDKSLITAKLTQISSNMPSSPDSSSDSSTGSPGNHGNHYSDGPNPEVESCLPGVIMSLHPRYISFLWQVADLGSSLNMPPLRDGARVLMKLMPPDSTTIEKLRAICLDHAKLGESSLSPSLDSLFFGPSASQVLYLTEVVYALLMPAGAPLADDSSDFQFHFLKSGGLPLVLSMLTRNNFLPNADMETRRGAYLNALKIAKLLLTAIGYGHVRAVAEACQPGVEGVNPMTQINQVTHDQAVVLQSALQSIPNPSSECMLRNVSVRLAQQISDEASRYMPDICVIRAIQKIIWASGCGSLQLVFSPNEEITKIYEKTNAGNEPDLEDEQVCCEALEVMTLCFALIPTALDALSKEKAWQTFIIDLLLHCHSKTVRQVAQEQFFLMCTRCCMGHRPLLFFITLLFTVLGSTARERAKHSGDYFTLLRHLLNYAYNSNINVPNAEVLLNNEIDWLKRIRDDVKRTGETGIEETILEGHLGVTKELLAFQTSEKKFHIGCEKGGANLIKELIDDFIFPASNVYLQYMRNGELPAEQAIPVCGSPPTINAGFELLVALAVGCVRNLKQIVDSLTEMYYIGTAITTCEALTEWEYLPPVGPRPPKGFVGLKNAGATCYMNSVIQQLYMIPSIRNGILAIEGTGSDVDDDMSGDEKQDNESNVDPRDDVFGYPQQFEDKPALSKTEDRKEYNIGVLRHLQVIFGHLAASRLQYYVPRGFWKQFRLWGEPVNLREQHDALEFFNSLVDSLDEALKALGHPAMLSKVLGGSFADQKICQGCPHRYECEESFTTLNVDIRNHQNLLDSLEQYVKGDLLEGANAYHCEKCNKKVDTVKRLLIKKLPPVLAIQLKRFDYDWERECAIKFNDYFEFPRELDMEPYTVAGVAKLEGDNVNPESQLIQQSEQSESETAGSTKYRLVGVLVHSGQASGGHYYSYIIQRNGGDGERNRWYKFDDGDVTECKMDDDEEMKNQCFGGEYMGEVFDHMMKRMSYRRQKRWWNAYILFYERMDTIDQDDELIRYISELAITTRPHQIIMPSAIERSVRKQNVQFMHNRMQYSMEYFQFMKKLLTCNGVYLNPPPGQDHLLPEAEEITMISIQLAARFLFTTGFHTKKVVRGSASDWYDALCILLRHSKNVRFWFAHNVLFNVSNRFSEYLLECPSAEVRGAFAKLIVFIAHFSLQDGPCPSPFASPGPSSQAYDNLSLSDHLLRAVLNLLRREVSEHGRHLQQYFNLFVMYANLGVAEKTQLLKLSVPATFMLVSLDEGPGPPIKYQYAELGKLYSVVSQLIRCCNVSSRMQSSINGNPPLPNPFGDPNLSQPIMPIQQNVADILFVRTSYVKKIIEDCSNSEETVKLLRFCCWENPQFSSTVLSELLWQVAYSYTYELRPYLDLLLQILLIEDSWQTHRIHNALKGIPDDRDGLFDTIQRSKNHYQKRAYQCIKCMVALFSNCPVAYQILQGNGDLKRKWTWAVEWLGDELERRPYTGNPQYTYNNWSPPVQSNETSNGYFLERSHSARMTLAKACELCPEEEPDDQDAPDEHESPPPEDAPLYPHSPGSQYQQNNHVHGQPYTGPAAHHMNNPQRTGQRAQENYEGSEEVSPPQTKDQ
UniProt Q93009: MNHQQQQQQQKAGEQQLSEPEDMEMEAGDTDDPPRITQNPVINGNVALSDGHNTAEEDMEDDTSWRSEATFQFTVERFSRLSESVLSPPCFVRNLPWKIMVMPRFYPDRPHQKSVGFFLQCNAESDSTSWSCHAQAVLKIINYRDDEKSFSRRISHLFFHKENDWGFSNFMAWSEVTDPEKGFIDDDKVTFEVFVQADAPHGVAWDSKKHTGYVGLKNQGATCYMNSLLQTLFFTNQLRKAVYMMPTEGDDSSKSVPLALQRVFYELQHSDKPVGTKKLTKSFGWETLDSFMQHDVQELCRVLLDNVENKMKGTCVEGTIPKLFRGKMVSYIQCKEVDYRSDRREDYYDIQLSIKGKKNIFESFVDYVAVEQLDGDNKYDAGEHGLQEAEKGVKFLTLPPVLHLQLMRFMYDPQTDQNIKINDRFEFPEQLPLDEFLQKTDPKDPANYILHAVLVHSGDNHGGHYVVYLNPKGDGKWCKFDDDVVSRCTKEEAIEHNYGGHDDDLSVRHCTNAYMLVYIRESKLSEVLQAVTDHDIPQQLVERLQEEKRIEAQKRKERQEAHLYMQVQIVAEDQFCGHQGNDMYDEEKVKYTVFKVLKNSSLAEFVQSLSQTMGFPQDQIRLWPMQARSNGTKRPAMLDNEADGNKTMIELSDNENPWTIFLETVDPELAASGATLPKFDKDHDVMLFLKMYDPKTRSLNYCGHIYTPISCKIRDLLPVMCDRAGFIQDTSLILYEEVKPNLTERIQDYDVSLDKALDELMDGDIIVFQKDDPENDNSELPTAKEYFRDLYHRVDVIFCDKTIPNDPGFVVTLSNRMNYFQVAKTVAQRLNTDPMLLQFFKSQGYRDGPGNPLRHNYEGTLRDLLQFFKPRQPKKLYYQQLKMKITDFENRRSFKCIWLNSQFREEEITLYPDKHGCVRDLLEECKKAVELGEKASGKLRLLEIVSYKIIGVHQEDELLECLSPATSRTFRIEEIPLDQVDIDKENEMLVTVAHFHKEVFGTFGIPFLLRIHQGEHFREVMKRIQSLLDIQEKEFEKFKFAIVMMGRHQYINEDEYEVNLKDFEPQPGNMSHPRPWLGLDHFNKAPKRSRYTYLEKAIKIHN
UniProt Q9NVI1: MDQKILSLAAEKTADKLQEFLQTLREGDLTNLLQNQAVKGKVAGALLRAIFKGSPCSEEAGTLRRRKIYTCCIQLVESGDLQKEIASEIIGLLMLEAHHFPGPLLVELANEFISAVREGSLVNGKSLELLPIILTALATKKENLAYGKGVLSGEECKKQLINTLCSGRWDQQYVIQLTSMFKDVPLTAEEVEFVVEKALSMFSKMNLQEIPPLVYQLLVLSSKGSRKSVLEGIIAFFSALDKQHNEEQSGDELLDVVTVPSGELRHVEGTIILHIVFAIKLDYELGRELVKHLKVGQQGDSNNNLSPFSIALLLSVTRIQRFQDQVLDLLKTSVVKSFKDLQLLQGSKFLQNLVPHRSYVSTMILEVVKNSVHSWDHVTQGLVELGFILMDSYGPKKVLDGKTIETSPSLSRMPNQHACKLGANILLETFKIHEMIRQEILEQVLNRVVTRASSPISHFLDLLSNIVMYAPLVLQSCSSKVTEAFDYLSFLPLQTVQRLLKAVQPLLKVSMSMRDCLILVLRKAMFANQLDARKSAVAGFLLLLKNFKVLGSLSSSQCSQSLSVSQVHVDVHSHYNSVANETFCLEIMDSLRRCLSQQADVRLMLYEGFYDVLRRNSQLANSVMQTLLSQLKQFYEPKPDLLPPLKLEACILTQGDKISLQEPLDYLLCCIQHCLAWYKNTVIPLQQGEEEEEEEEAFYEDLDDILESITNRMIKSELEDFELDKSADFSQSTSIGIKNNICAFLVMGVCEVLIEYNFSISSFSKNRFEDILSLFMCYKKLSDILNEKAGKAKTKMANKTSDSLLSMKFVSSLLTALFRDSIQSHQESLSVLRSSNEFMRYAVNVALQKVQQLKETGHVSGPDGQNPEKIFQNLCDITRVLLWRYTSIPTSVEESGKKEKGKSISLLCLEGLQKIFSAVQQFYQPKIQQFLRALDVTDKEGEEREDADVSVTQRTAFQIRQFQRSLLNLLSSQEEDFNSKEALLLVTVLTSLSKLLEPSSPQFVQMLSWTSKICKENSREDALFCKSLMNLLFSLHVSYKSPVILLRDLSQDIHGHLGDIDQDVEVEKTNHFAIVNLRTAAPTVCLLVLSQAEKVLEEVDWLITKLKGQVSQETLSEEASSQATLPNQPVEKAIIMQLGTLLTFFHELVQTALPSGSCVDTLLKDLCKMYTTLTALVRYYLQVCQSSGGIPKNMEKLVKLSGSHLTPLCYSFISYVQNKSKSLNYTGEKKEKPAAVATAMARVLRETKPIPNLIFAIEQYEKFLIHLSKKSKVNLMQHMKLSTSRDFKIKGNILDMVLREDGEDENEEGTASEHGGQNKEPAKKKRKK

Target: GFP-FAN1 wild-type (wt), full-length (human) (UniProt Q9Y2M0)
Test: affinity purification with mass spectrometry; GFP-Trap agarose on nuclei-enriched, Benzonase-treated lysates of HEK293 Flp-In T-REx eGFP-FAN1 cells (parental HEK293 as control); IP buffer 50 mM Tris-HCl pH 7.5, 100 mM NaCl, 0.1% NP40; 1 h, 4 °C; LC-MS/MS, n = 3

## endogenous USP9X (HEK293 cells) (from UniProt Q93008 1-2554) (enzyme)
  binding: binds

## endogenous USP7 (HEK293 cells) (from UniProt Q93009 1-1102) (enzyme)
  binding: binds

## FANCI (from UniProt Q9NVI1 1-1328)
  binding: binds
